In article PMC6168687, “The C‐terminal segment of collagenase in Grimontia hollisae binds collagen to enhance collagenolysis” (FEBS Open Bio, 2018):
These are yes or no findings as the source states them, for the method shown.

Amino acid sequences for entries named in this document (tags omitted). A change or cut given only in a name is not applied to a line headed by its entry. Residues count along the entry.
UniProt P02453: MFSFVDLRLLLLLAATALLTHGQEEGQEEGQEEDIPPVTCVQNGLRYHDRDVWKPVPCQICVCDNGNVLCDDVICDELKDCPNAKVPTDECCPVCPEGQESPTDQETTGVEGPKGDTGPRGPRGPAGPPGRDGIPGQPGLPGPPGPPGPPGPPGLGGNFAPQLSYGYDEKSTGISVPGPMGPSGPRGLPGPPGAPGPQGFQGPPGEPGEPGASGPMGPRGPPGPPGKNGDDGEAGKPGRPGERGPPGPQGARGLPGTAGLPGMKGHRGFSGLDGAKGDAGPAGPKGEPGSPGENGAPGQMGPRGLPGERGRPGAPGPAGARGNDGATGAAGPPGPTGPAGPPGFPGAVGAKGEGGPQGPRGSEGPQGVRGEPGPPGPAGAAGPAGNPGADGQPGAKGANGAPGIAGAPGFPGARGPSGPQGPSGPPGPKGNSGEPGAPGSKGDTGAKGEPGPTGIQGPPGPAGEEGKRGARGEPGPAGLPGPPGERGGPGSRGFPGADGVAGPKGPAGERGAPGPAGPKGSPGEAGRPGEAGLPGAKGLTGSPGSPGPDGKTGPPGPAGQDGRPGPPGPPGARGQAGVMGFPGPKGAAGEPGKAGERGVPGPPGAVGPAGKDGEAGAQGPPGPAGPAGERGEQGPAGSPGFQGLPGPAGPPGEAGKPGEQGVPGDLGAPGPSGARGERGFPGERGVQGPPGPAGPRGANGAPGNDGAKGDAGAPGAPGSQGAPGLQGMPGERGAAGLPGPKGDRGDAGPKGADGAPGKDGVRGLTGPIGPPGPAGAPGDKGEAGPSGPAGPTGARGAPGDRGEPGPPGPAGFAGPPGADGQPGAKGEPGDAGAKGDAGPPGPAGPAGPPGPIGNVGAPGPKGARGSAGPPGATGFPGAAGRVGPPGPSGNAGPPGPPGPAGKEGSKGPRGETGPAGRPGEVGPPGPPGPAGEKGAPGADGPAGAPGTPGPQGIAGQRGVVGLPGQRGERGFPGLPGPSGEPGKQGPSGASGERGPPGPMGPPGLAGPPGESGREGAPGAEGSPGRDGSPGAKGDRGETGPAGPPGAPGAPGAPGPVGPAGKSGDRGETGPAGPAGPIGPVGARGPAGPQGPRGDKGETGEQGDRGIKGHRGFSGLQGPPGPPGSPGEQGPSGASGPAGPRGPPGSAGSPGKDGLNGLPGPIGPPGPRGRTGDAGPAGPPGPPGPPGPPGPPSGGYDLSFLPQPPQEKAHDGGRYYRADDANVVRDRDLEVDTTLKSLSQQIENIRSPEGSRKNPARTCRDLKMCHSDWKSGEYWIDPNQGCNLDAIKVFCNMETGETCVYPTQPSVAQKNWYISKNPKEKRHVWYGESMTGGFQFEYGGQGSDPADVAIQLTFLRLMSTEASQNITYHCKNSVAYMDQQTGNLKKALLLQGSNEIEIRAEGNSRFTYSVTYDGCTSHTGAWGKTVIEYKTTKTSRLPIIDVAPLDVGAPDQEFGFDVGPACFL
UniProt P02769, residues 25-607: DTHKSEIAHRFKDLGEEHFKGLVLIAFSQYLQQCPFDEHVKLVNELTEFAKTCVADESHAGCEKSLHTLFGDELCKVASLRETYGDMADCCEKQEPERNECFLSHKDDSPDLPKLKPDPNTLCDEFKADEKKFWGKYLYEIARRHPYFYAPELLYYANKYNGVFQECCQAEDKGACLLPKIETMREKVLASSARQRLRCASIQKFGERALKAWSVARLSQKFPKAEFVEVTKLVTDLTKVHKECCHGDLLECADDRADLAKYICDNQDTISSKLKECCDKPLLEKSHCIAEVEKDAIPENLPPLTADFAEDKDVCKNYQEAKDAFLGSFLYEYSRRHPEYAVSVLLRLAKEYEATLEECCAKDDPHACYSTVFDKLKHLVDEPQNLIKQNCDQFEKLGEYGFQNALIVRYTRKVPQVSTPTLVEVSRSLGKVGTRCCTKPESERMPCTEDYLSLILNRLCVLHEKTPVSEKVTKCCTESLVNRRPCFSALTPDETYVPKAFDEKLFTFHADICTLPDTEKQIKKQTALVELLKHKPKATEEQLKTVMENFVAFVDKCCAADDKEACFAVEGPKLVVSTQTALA

Molecular target: T1, insoluble type I collagen fibers (UniProt P02453 162-1217; P02465 80-1117)
T1 construct: type I collagen, alpha-1(I) chain; type I collagen, alpha-2(I) chain; Triple-helical, insoluble fibres; also called insoluble collagen fibers; native collagen; source: bought: Sigma‐Aldrich
Assay: collagen-binding assay (unbound protein in the filtrate by SDS/PAGE); protein (with BSA) incubated with insoluble type I collagen fibers in binding buffer (50 mM Tris/HCl, 0.2 M NaCl, 5 mM CaCl2, pH 7.5), room temperature, 30 min, 0.22 μm centrifugal filter unit; filtrate analysed by …; both purified

binding: no binding (tested: 0.2 mg·mL^−1)
Substance: BSA (from UniProt P02769 25-607)
